One compound from patent US12539307B2, “Oral cannabinoid formulation comprising tocopheryl phosphates and long chain triglycerides or long chain fatty acids” (AVECHO BIOTECHNOLOGY LIMITED, priority 2020, dated 2026) can be followed below.

This data set can be described thus: In vitro intestinal digestion of carrier oil in fasted media (pH 6.5): solubilisation of CBD. It counts as in vitro ADME. The protocol:
FIG. 1—Solubilisation of CBD during in vitro intestinal digestion of carrier oil (MCT, LCT/LCFA, or a mixture of MCT:LCT/LCFA) in fasted media (pH 6.5). Total lipid was 110 mg (100 mg carrier oil+10 mg CBD). Data are mean±SD, n=3. A. CBD concentration (mg) during digestion in MCT. B. CBD concentration (mg) during digestion in LCT/LCFA (Maisine CC). C. CBD concentration (mg) during digestion in a mixture of MCT:LCT/LCFA (Maisine CC)
FIG. 2—Solubilisation of CBD in the presence of TPM during in vitro gastro-intestinal digestion of carrier oil (MCT, LCT/LCFA, or a mixture of MCT:LCT/LCFA) in fasted media. Total lipid was 110 mg (80-90 mg carrier oil+10 mg CBD+10-20 mg TPM). Data are mean±SD, n=3. A. CBD concentration (mg) during digestion in MCT with TPM. B. CBD concentration (mg) during digestion in LCT/LCFA (Maisine CC) with TPM. C. CBD concentration (mg) during digestion in a mixture of MCT:LCT/LCFA (Maisine CC) with TPM.
FIG. 3—Solubilisation of CBD in the presence of TPM during in vitro digestion of carrier oil (MCT, LCT/LCFA, or a mixture of MCT:LCT/LCFA) in fasted media (pH 6.5). Total lipid was 110 mg (80-90 mg carrier oil+10 mg CBD+10-20 mg TPM). Data are mean±SD, n=3. A. CBD concentration (mg) during digestion in 3:1 MCT:LCT/LCFA, with TPM. B. CBD concentration (mg) during digestion in 1:1 MCT:LCT/LCFA, with TPM. C. CBD concentration (mg) during digestion in 1:3 MCT:LCT/LCFA, with TPM. […]

Consider `C=C(C)[C@@H]1CCC(C)=C[C@H]1c1c(O)cc(CCCCC)cc1O` [CBD, cannabidiol], for which, under “TPM added to MCT carrier oil or to LCT/LCFA carrier oil”, the “effect of TPM addition on in-vitro solubility of CBD during digestion” value is “did not increase”. Moreover, the “effect of TPM addition on aqueous solubility of CBD during digestion” value (TPM added to mixture of MCT and LCT/LCFA) was “increased”.
